PubChem BioAssay AID1259308 – NCATS | 2017

- Screen: 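Knock-downs that increase output of a recombinant reporter protein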 (primary screen)
- Cells: human HEK293 embryonic kidney cells stably expressing firefly luciferase (HEK-CMV-Luc2-Hygro)
- Knock-down reagent: single siRNA against human genes, 0.8 pmol siRNA per well
- Time to read-out: 72 h
- Detection: 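Reporter luminescence and viable-cell signal on separate replicate plates, given as percent of non-targeting control and median/MAD z-scores, plus per-cell luciferase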
- Reading the numbers: total luciferase, z-score: higher = more reporter protein produced
- Hit rule: 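Active when the median/MAD z-score for overall luciferase is greater than 3; a gene was taken forward for validation with new siRNAs if at least two of its three siRNAs passed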
- Meaning of the calls: active = raised luciferase; inactive = no rise
The deposit covers about 59,000 reagents; this is an unselected part. About 1,510 of them (2.6%) count as active. 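Calls use total luciferase alone and ignore viability, so some active siRNAs may act by altering cell number.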 A number with no mark means an inactive call. The numbers tell different reagents against one gene apart. Not all columns of the deposit are shown.

EIF3C #1 showed total luciferase, z-score -1.95.
Against EIF3C #2, the values are total luciferase, z-score -2.62.
With knock-down of EIF3C #3, the record shows total luciferase, z-score -1.55.
Against TPTE2 #1, the values are total luciferase, z-score 0.185.
With knock-down of TPTE2 #2 the results were total luciferase, z-score -1.37.
After knock-down of TPTE2 #3, the record shows total luciferase, z-score -0.378.
With knock-down of H4C8 #1 the results were total luciferase, z-score 1.23.
Depletion of H4C8 #2 resulted in: total luciferase, z-score 1.05.
H4C8 #3 showed total luciferase, z-score 0.094.
With knock-down of NDUFB2 #1, the screen gave total luciferase, z-score -0.547.
Silencing of NDUFB2 #2 resulted in: total luciferase, z-score 0.835.
With knock-down of NDUFB2 #3, the screen gave total luciferase, z-score -1.72.
After knock-down of RNF227 #1 the results were total luciferase, z-score 0.899.
RNF227 #2 scored total luciferase, z-score 0.667.
Against RNF227 #3, the values are total luciferase, z-score -0.894.

Laid out differently: 4 of the entries above.
{"gene symbol":"NDUFB2","reagent":2,"total luciferase, z-score":0.835}
{"gene symbol":"NDUFB2","reagent":3,"total luciferase, z-score":-1.72}
{"gene symbol":"RNF227","reagent":1,"total luciferase, z-score":0.899}
{"gene symbol":"RNF227","reagent":2,"total luciferase, z-score":0.667}

The results go on.
Against MTNAP1 #1, the values are total luciferase, z-score 1.82.
After knock-down of MTNAP1 #2 the results were total luciferase, z-score 1.17.
For MTNAP1 #3, the values are total luciferase, z-score 1.88.
With knock-down of IRX3 #1, the screen gave total luciferase, z-score -0.612.
Silencing of IRX3 #2 came out at: total luciferase, z-score 0.153.
For IRX3 #3, the values are total luciferase, z-score 3.66 (active).
Against MKLN1 #1, the entry reads total luciferase, z-score 0.92.
MKLN1 #2 gave total luciferase, z-score -0.375.
After knock-down of MKLN1 #3, the record shows total luciferase, z-score 0.012.
Silencing of SYNE2 #1 came out at: total luciferase, z-score 1.25.
SYNE2 #2 showed total luciferase, z-score -0.321.
Knock-down of SYNE2 #3 resulted in: total luciferase, z-score -1.5.
Against MYO1D #1, the entry reads total luciferase, z-score 1.23.
For MYO1D #2, the entry reads total luciferase, z-score 1.14.
Silencing of MYO1D #3 gave: total luciferase, z-score 0.898.
OXR1 #1 showed total luciferase, z-score -0.874.
For OXR1 #2 the deposit lists total luciferase, z-score 0.975.
OXR1 #3 showed total luciferase, z-score 1.77.
